Data set [1] in a line: dye migration resistance of recorded image (70° C., 48 hr, sharpness and coloration of white paper). Also noted: key: .circleincircle.: no change in the sharpness was observed and rubbing of the surface with white paper gave rise to no coloration of the white paper; .largecircle.: the sharpness of the image was slightly lost and the white paper was slightly colored; Δ: the sharpness of the image was lost and the white paper was colored; X: the image became unclear and the white paper was remarkably colored.

Data set [2] in a line: recording density (densitometer RD-918, Macbeth). Particulars: 10 V, 4.0 msec.
Setting [3] is: Table A3, Comparative Examples A1-A6.
Setting [4] is: Table B3, Comparative Examples B1-B6.
[5] abbreviates: Table C (C3), Comparative Examples C1-C6.

As to `CCN(CC)c1ccc(N=C2C=C(NC(=O)C3CC3)C(=O)C(Cl)=C2C)c(C)c1` [compound 1], the Dye migration resistance entry in data set [1] (Table A2, dyes of Table A1) was “Δ”. Further, in data set [2] (Table A2, dyes of Table A1), the Recording density is reported as 1.95.
With `CCOc1cc(N(CC)CC)ccc1N=C1C=CC(=O)C(NC(=O)C2CC=CCC2)=C1` (stereo not drawn) [Dye No. 4 in Table B1], in data set [1] (Table B2, dyes of Table B1), the Dye migration resistance entry is “.largecircle”. This compound also came in with a Recording density in data set [2] (Table B2, dyes of Table B1) of 1.89.
As for `CCN(CCNS(C)(=O)=O)c1ccc(N=C2C=C(NC(=O)C3CC3)C(=O)C=C2NC(C)=O)c(C)c1` [compound 6], the Dye migration resistance result in data set [1] (Table A2, dyes of Table A1) is “.largecircle”. The compound also returned a Recording density in data set [2] (Table A2, dyes of Table A1) of 1.82.
`CNc1ccc(Nc2cccc(C)c2)c2c1C(=O)c1ccccc1C2=O` [Comp. Ex. A3, C.I. Solvent Blue 63, reference compound]: the Dye migration resistance result in data set [1] (setting [3]), in data set [1] (setting [4]) and in data set [1] (setting [5]) was “X” in each case. For the same compound, the Recording density in data set [2] (setting [3]), in data set [2] (setting [4]) and in data set [2] (setting [5]) was 2.13 in each case.
Turning to `CCN(CC)c1ccc(N=C2C=C(NC(=O)C3CCCC3)C(=O)C(Cl)=C2C)cc1` [compound 17], the Dye migration resistance entry in data set [1] (Table A2, dyes of Table A1) was “.largecircle”. In data set [2] (Table A2, dyes of Table A1), the Recording density is 1.90.
Turning to `CCN(CC)c1ccc(N=C2C=C(NC(=O)C3CC3)C(=O)C(Cl)=C2C)cc1` [compound 11], the Dye migration resistance entry in data set [1] (Table A2, dyes of Table A1) was “.largecircle”. The compound also gave a Recording density in data set [2] (Table A2, dyes of Table A1) of 1.98.
As to `CCN(CCC#N)c1ccc(N=C2C=C(NC(=O)C3CC=CC3)C(=O)C(Cl)=C2C)c(NS(C)(=O)=O)c1` [Dye No. 13 in Table B1], in data set [1] (Table B2, dyes of Table B1), the Dye migration resistance entry is on record as “.largecircle”. Also, in data set [2] (Table B2, dyes of Table B1), the Recording density is given as 1.67.
Consider `CCN(c1ccccc1)c1ccc(N=C2C=C(NC(=O)C3CC=CC3)C(=O)C=C2NC(=O)NC)c(Cl)c1` [Dye No. 15 in Table B1], for which the Dye migration resistance result in data set [1] (Table B2, dyes of Table B1) is given as “.largecircle”. In addition, in data set [2] (Table B2, dyes of Table B1), the Recording density stood at 1.70.
With `CCOCCN(CC)c1ccc(N=C2C=C(NC(=O)C3CC4CCC3C4)C(=O)C(Cl)=C2C)c(C)c1` (stereo not drawn) [Dye No. 17 in Table C1], the Dye migration resistance result in data set [1] (Table C2, dyes of Table C1) is listed as “.largecircle”. The compound also gave a Recording density in data set [2] (Table C2, dyes of Table C1) of 1.72.
Turning to `CCN(CCNS(C)(=O)=O)c1ccc(N=C2C=C(NC(=O)C3CC=CC3)C(=O)C=C2NS(C)(=O)=O)c(C)c1` [Dye No. 14 in Table B1], the Dye migration resistance entry in data set [1] (Table B2, dyes of Table B1) is given as “.largecircle”. This compound gave a Recording density in data set [2] (Table B2, dyes of Table B1) of 1.65.
For `CCN(Cc1ccccc1)c1ccc(N=C2C=C(NC(=O)C3CCCC3)C(=O)C=C2NC(C)=O)c(C)c1` [compound 13], the Dye migration resistance result in data set [1] (Table A2, dyes of Table A1) was “.largecircle”. The compound also showed a Recording density in data set [2] (Table A2, dyes of Table A1) of 1.86.
`CCN(Cc1ccccc1)c1ccc(N=C2C=C(NC(=O)C3=CC4C=CC3C4)C(=O)C=C2NC(C)=O)cc1` (stereo not drawn) [Dye No. 13 in Table C1]: the Dye migration resistance entry in data set [1] (Table C2, dyes of Table C1) is listed as “.largecircle”. The compound further had a Recording density in data set [2] (Table C2, dyes of Table C1) of 1.71.
With `CCN(CC)c1ccc(N=C2C=CC(=O)C(NC(=O)C3CC3)=C2)c(NC(C)=O)c1` [compound 9], the Dye migration resistance result in data set [1] (Table A2, dyes of Table A1) is recorded as “Δ”. This compound also gave a Recording density in data set [2] (Table A2, dyes of Table A1) of 1.93.
Regarding `CNc1ccc(NC)c2c1C(=O)c1ccccc1C2=O` [Comp. Ex. A1, C.I. Disperse Blue 14, reference compound], the Dye migration resistance result in data set [1] (setting [3]), in data set [1] (setting [4]) and in data set [1] (setting [5]) was “X” in each case. The Recording density in data set [2] (setting [3]), in data set [2] (setting [4]) and in data set [2] (setting [5]) was 1.01 in each case.
Regarding `CCN(CC)c1ccc(N=C2C=C(NC(=O)c3ccccc3)C(=O)C(Cl)=C2C)c(C)c1` [Comparative Example A6, reference compound], the Dye migration resistance result in data set [1] (setting [3]) was “Δ”. The compound further showed a Recording density in data set [2] (setting [3]) of 1.87.
With `CCOc1cc(N(CC)CCO)ccc1N=C1C=C(NC(=O)C2=CCCCC2)C(=O)C=C1NC(C)=O` [Dye No. 9 in Table B1], in data set [1] (Table B2, dyes of Table B1), the Dye migration resistance result is reported as “.largecircle”. In data set [2] (Table B2, dyes of Table B1), this compound showed a Recording density of 1.72.
As for `CCN(CC)c1ccc(N=C2C=C(NC(=O)C3CC=CCC3)C(=O)C=C2NC(C)=O)c(C)c1` (stereo not drawn) [Dye No. 3 in Table B1], in data set [1] (Table B2, dyes of Table B1), the Dye migration resistance entry is reported as “.largecircle”. Also, in data set [2] (Table B2, dyes of Table B1), the Recording density came out at 1.86.
In the case of `CCN(CC)c1ccc(N=C2C=C(NC(=O)C3CCCC3)C(=O)C(Cl)=C2C)c(NC(C)=O)c1` [compound 14], in data set [1] (Table A2, dyes of Table A1), the Dye migration resistance entry was “.largecircle”. In data set [2] (Table A2, dyes of Table A1), this compound registered a Recording density of 1.85.
As to `CCN(CCC#N)c1ccc(N=C2C=C(NC(=O)C3=CC4C=CC3C4)C(=O)C(Cl)=C2C)c(NS(C)(=O)=O)c1` (stereo not drawn) [Dye No. 14 in Table C1], the Dye migration resistance result in data set [1] (Table C2, dyes of Table C1) is reported as “.largecircle”. The Recording density in data set [2] (Table C2, dyes of Table C1) came to 1.61.
The matching figures for `CCN(CC)c1ccc(N=C2C=C(NC(=O)C3CC4C=C(C)C3C4)C(=O)C=C2NC(C)=O)c(C)c1` (stereo not drawn) [Dye No. 20 in Table C1]: “.largecircle” and 1.78.
Take `CCN(CC)c1ccc(N=C2C=C(NC(=O)C3CC3)C(=O)C=C2NC(C)=O)c(C)c1` [compound 3]: in data set [1] (Table A2, dyes of Table A1), the Dye migration resistance entry was “.largecircle”. This compound came in with a Recording density in data set [2] (Table A2, dyes of Table A1) of 1.92.
Turning to `CCOc1cc(N(CC)CC)c(OCC)cc1N=C1C=C(NC(=O)C2CC3C=C(C)C2C3)C(=O)C(Cl)=C1C` (stereo not drawn) [Dye No. 19 in Table C1], the Dye migration resistance entry in data set [1] (Table C2, dyes of Table C1) was “.largecircle”. In data set [2] (Table C2, dyes of Table C1), this compound came in with a Recording density of 1.63.
As to `CCN(CC)c1ccc(N=C2C=C(NC(=O)C3CC=CCC3)C(=O)C(Cl)=C2C)c(NC(C)=O)c1` (stereo not drawn) [Dye No. 6 in Table B1], the Dye migration resistance result in data set [1] (Table B2, dyes of Table B1) was “.largecircle”. In data set [2] (Table B2, dyes of Table B1), this compound gave a Recording density of 1.72.
Taken in the same sequence, the figures for `CCN(CCO)c1ccc(N=C2C=C(NC(=O)C3CC=CCC3)C(=O)C(Cl)=C2C)c(C)c1` (stereo not drawn) [Dye No. 2 in Table B1] were “.largecircle” and 1.80.
Turning to `CCN(CC)c1ccc(N=C2C=C(NC(=O)c3ccccc3)C(=O)C(Cl)=C2C)c(C)c1` [Comparative Example B6, reference compound], the Dye migration resistance result in data set [1] (setting [4]) is recorded as “Δ”. The Recording density in data set [2] (setting [4]) stood at 1.87.
As for `CNc1ccc(O)c2c1C(=O)c1c(O)ccc(NC)c1C2=O` [Comp. Ex. A4, C.I. Disperse Blue 26, reference compound], the Dye migration resistance result in data set [1] (setting [3]), in data set [1] (setting [4]) and in data set [1] (setting [5]) was “Δ” each time. The Recording density in data set [2] (setting [3]), in data set [2] (setting [4]) and in data set [2] (setting [5]) was 1.25 each time.
Turning to `CCN(CC)c1ccc(N=C2C=C(NC(=O)C3CC4C=CC3C4)C(=O)C(Cl)=C2C)c(C)c1` (stereo not drawn) [Dye No. 1 in Table C1], in data set [1] (Table C2, dyes of Table C1), the Dye migration resistance result was “.largecircle”. In addition, the Recording density in data set [2] (Table C2, dyes of Table C1) came to 1.78.
Consider `CCC1=C(Cl)C(=O)C(NC(=O)C2CC3C=CC2C3)=CC1=Nc1ccc(N(CC)CC)cc1C` (stereo not drawn) [Dye No. 7 in Table C1], for which the Dye migration resistance entry in data set [1] (Table C2, dyes of Table C1) was “.largecircle”. Also, the Recording density in data set [2] (Table C2, dyes of Table C1) was found to be 1.76.
On to `CCN(CC)c1ccc(N=C2C=C(NC(=O)C3CC4C=C(C)C3C4)C(=O)C(Cl)=C2C)c(C)c1` (stereo not drawn) [Dye No. 18 in Table C1], for which the Dye migration resistance entry in data set [1] (Table C2, dyes of Table C1) is “.largecircle”. For the same compound, the Recording density in data set [2] (Table C2, dyes of Table C1) was 1.79.
For the compound `CCN(CC)c1ccc(N=C2C=C(NC(=O)c3ccsc3)C(=O)C(Cl)=C2C)c(C)c1` [compound 19], the Dye migration resistance entry in data set [1] (Table A2, dyes of Table A1) is “.largecircle”. For the same compound, the Recording density in data set [2] (Table A2, dyes of Table A1) is reported as 1.83.
Turning to `CCN(CCOC)c1ccc(N=C2C=C(NC(=O)C3=CCC=CC3)C(=O)C=C2NC(C)=O)c(NC(C)=O)c1` [Dye No. 19 in Table B1], the Dye migration resistance result in data set [1] (Table B2, dyes of Table B1) was “.largecircle”. For the same compound, the Recording density in data set [2] (Table B2, dyes of Table B1) is on record as 1.66.
On to `CCN(CCO)c1ccc(N=C2C=C(NC(=O)C3CC3)C(=O)C(Cl)=C2C)c(C)c1` [compound 2], for which the Dye migration resistance entry in data set [1] (Table A2, dyes of Table A1) is “.largecircle”. In data set [2] (Table A2, dyes of Table A1), this compound displayed a Recording density of 1.91.
Taken in the same sequence, the figures for `CCOc1cc(N(CC)Cc2ccccc2)ccc1N=C1C=C(NC(=O)C2CC2)C(=O)C=C1NC(C)=O` [compound 5] were “.largecircle” and 1.81.
Take `CCN(CC)c1ccc(N=C2C=C(NC(=O)c3ccccc3)C(=O)C(Cl)=C2C)c(C)c1` [Comparative Example C6, reference compound]: the Dye migration resistance entry in data set [1] (setting [5]) is reported as “Δ”. This compound also returned a Recording density in data set [2] (setting [5]) of 1.87.
As to `CCN(CC)c1ccc(N=C2C=C(NC(=O)C3CC=CCC3)C(=O)C(Cl)=C2C)c(C)c1` (stereo not drawn) [Dye No. 1 in Table B1], the Dye migration resistance result in data set [1] (Table B2, dyes of Table B1) was “.largecircle”. Moreover, the Recording density in data set [2] (Table B2, dyes of Table B1) is 1.83.
On to `CCN(CC)c1ccc(N=C2C=C(NC(=O)C3CC4C=CC3C4)C(=O)C=C2NC(C)=O)c(C)c1` (stereo not drawn) [Dye No. 4 in Table C1], for which the Dye migration resistance result in data set [1] (Table C2, dyes of Table C1) is listed as “.largecircle”. Further, the Recording density in data set [2] (Table C2, dyes of Table C1) is recorded as 1.77.
Consider `CCN(CCOC)c1ccc(N=C2C=C(NC(=O)c3ccsc3)C(=O)C(Cl)=C2C)c(NC(C)=O)c1` [compound 22], for which the Dye migration resistance entry in data set [1] (Table A2, dyes of Table A1) was “.largecircle”. For the same compound, the Recording density in data set [2] (Table A2, dyes of Table A1) was 1.71.
Taken in the same sequence, the figures for `CCN(CCCl)c1ccc(N=C2C=C(NC(=O)C3CCCC3)C(=O)C=C2NC(C)=O)c(NC(=O)NC)c1` [compound 18] were “.largecircle” and 1.70.
Taken in the same sequence, the figures for `CCN(CCO)c1ccc(N=C2C=C(NC(=O)C3CC3)C(=O)C=C2NC(C)=O)c(NS(C)(=O)=O)c1` [compound 10] were “.largecircle” and 1.88.

Source of the values: patent US5260257A, “Thermal transfer sheet” (Dai Nippon Printing Co., Ltd., priority 1991, dated 1993).
